Among the data in article PMC12177072 are binding values, retold here.

The chains behind the UniProt entries cited, without tags or fusion partners.
UniProt P49327: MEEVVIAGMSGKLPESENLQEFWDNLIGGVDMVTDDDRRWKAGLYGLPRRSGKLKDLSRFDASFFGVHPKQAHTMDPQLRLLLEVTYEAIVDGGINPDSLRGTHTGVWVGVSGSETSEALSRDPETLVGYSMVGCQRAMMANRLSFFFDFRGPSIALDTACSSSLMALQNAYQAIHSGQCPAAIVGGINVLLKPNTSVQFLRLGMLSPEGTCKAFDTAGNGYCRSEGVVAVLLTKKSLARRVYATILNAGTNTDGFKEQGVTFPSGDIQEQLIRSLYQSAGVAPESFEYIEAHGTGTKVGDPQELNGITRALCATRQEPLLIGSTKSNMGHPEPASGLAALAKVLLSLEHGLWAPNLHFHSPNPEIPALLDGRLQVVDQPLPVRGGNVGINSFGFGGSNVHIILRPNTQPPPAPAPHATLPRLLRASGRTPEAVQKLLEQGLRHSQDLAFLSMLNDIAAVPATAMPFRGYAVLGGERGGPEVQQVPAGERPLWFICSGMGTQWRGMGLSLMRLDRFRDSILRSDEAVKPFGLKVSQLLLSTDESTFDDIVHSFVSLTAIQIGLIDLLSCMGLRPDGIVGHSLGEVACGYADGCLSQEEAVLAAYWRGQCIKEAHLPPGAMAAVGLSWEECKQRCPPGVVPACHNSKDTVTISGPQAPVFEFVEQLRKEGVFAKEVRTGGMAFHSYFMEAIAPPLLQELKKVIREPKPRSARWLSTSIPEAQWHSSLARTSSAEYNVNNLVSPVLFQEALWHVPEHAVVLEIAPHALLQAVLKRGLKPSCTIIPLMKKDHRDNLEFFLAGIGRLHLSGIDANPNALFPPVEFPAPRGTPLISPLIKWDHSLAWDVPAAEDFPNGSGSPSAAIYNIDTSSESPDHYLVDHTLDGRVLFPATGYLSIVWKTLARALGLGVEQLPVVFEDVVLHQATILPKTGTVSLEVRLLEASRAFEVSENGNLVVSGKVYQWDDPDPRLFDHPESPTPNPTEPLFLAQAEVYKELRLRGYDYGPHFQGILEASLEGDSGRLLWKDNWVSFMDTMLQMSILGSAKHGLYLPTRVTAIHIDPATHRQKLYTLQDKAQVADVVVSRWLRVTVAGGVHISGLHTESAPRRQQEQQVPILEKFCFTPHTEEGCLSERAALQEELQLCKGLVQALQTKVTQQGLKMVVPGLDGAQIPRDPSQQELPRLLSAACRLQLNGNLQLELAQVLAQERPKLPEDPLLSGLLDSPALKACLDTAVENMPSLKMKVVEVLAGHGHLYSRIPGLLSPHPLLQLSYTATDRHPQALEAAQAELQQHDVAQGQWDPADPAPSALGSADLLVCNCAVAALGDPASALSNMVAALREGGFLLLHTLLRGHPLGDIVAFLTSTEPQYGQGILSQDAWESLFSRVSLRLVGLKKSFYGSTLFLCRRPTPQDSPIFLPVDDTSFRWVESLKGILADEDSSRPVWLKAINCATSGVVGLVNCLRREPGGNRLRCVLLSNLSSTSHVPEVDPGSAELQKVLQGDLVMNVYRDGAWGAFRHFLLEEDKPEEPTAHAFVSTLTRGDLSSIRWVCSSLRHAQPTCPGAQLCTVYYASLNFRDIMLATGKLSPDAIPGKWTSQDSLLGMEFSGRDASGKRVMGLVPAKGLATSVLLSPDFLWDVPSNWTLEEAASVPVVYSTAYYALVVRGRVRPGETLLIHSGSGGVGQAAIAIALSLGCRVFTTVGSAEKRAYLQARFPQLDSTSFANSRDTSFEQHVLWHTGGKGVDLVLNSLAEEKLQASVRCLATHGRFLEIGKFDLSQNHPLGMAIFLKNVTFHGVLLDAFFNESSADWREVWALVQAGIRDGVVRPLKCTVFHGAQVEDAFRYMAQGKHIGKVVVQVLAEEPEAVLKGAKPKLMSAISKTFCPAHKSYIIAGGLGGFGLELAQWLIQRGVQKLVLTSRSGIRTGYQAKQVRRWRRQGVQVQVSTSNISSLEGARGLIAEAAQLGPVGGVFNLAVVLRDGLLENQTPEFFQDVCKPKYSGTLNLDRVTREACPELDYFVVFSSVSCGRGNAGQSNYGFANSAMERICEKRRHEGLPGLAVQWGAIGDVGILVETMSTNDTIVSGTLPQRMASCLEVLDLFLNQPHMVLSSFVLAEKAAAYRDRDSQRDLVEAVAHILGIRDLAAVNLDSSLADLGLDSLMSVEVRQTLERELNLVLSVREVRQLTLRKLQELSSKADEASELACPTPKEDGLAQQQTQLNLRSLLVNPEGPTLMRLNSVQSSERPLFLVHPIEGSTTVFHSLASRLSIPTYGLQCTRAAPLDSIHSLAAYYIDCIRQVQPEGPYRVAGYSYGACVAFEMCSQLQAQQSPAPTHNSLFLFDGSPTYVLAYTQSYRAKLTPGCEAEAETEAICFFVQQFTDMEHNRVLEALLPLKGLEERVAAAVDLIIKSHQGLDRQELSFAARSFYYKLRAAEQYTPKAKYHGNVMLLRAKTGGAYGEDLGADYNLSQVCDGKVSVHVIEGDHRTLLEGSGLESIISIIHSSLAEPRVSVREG

The target of experiment [1] is FLAG-FASN (UniProt P49327). Put plainly: co-IP; exogenous, HEK293T cells 48 h after co-transfection of tagged plasmids; IP with HA or FLAG antibody, magnetic beads, Western blot; also in CN, shPUMA and PUMA-overexpressing HEK293T. A general note: In western blotting, separated proteins are transferred to a membrane and probed.
The target of experiment [2] is T1, FLAG-PUMA (UniProt Q9BXH1).
T1 sequence: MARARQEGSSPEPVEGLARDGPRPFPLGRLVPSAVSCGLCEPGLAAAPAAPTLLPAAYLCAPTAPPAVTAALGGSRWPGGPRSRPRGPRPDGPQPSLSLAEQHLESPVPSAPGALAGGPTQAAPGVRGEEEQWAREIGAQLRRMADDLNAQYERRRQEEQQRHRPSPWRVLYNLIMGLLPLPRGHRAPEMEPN
The experiment is described as above.

These are yes or no findings as the source states them, for the method shown. In cells and extracts the contact can be indirect. Some binding calls cover weakened binding; strength is not graded here. Where a sequence is shown, tags or fusion partners need not be part of it.

B1: HA-USP15 (enzyme, UniProt Q9Y4E8 1-981)
chain: MAEGGAADLDTQRSDIATLLKTSLRKGDTWYLVDSRWFKQWKKYVGFDSWDKYQMGDQNVYPGPIDNSGLLKDGDAQSLKEHLIDELDYILLPTEGWNKLVSWYTLMEGQEPIARKVVEQGMFVKHCKVEVYLTELKLCENGNMNNVVTRRFSKADTIDTIEKEIRKIFSIPDEKETRLWNKYMSNTFEPLNKPDSTIQDAGLYQGQVLVIEQKNEDGTWPRGPSTPKSPGASNFSTLPKISPSSLSNNYNNMNNRNVKNSNYCLPSYTAYKNYDYSEPGRNNEQPGLCGLSNLGNTCFMNSAIQCLSNTPPLTEYFLNDKYQEELNFDNPLGMRGEIAKSYAELIKQMWSGKFSYVTPRAFKTQVGRFAPQFSGYQQQDCQELLAFLLDGLHEDLNRIRKKPYIQLKDADGRPDKVVAEEAWENHLKRNDSIIVDIFHGLFKSTLVCPECAKISVTFDPFCYLTLPLPMKKERTLEVYLVRMDPLTKPMQYKVVVPKIGNILDLCTALSALSGIPADKMIVTDIYNHRFHRIFAMDENLSSIMERDDIYVFEININRTEDTEHVIIPVCLREKFRHSSYTHHTGSSLFGQPFLMAVPRNNTEDKLYNLLLLRMCRYVKISTETEETEGSLHCCKDQNINGNGPNGIHEEGSPSEMETDEPDDESSQDQELPSENENSQSEDSVGGDNDSENGLCTEDTCKGQLTGHKKRLFTFQFNNLGNTDINYIKDDTRHIRFDDRQLRLDERSFLALDWDPDLKKRYFDENAAEDFEKHESVEYKPPKKPFVKLKDCIELFTTKEKLGAEDPWYCPNCKEHQQATKKLDLWSLPPVLVVHLKRFSYSRYMRDKLDTLVDFPINDLDMSEFLINPNAGPCRYNLIAVSNHYGGMGGGHYTAFAKNKDDGKWYYFDDSSVSTASEDQIVSKAAYVLFYQRQDTFSGTGFFPLDRETKGASAATGIPLESDEDSNDNDNDIENENCMHTN
As for B1, the binding result in experiment [1] and in experiment [2] was “binds” throughout.

B2: HA-PUMA (protein, UniProt Q9BXH1 1-193)
chain: T1 sequence
B2: the binding entry in experiment [1] is “binds”.
